Measured values published in the supplement of paper PMC10849652.
This is one part of the list.

Sequences of proteins named here, by UniProt entry; tags and fusion partners are left off. A change or cut given only in a name is not applied to a line headed by its entry.
UniProt O00743: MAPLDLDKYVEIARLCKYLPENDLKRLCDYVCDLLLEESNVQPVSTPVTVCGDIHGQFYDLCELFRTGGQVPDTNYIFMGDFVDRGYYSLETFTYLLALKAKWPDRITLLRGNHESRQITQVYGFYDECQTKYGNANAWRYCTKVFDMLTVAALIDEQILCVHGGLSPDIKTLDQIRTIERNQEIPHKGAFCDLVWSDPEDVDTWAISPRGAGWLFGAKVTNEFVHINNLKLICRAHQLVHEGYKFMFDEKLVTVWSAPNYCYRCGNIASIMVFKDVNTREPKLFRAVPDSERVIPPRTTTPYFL
UniProt P53041: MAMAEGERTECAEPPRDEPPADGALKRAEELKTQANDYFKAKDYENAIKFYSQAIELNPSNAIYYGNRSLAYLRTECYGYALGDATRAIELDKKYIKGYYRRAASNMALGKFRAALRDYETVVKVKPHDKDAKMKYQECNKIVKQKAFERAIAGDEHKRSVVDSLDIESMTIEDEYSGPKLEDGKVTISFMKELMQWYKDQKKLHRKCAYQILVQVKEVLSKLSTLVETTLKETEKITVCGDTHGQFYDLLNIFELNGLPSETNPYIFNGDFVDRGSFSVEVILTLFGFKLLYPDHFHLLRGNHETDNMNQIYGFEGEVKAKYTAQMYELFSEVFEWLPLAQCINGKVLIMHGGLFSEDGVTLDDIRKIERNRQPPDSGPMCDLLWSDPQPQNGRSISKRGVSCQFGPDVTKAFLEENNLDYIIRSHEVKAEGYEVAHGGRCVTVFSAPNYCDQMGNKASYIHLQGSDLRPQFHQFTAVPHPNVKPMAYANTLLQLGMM
UniProt Q12972: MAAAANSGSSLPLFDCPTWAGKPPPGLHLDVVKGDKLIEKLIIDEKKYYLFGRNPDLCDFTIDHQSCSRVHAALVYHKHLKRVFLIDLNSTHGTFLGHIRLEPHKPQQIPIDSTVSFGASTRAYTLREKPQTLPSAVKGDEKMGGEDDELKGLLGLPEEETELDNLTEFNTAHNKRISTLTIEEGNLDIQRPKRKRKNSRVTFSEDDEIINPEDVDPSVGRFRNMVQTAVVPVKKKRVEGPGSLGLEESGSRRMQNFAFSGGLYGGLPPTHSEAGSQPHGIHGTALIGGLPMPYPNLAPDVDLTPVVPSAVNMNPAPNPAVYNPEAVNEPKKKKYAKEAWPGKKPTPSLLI
UniProt O60828: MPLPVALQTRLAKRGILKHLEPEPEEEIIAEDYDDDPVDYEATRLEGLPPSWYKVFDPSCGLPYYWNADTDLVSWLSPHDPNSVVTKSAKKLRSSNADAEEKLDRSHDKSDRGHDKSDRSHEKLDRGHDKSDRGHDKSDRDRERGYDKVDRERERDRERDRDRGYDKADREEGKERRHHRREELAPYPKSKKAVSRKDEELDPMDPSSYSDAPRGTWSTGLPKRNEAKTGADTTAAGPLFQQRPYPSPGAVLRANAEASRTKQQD
UniProt O60927: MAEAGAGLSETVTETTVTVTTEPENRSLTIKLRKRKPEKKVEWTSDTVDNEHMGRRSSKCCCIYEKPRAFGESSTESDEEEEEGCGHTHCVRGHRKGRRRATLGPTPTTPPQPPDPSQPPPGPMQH
UniProt Q9Y6M0: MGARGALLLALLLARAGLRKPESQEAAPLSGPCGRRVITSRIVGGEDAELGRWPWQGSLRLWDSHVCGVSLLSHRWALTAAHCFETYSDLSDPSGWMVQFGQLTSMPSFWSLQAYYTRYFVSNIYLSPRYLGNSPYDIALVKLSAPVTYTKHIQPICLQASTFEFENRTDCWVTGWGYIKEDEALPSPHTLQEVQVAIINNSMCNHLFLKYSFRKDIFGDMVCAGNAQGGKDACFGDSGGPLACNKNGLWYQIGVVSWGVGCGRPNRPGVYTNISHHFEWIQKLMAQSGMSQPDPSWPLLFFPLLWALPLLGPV
UniProt P62140, whole entry, looked up: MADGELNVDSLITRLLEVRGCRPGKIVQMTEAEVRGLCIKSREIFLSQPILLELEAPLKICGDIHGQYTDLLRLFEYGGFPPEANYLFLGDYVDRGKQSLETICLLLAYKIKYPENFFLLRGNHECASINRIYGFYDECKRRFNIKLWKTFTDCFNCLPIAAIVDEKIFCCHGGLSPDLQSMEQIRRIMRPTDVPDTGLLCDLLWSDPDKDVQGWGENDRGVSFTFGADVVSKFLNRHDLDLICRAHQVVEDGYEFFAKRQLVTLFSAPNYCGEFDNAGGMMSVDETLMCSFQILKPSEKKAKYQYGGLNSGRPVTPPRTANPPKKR
UniProt Q13162: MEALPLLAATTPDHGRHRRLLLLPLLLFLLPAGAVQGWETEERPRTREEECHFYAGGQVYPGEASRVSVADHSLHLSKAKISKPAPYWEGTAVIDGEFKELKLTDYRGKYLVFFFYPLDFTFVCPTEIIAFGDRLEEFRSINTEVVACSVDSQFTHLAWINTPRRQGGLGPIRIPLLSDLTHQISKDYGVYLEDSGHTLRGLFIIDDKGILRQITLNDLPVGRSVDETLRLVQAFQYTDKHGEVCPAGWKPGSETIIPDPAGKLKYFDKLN
UniProt Q86WR7: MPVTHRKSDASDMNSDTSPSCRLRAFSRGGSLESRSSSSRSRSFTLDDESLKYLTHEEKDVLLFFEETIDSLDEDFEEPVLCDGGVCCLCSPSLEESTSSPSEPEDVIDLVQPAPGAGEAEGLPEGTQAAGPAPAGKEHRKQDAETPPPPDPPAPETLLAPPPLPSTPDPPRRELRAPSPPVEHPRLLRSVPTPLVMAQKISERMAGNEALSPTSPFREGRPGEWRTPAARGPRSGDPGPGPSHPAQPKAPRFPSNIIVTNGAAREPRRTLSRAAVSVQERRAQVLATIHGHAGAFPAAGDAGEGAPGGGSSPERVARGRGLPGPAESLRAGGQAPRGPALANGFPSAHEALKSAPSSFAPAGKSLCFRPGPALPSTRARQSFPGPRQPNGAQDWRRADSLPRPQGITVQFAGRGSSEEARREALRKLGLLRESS
UniProt P32119: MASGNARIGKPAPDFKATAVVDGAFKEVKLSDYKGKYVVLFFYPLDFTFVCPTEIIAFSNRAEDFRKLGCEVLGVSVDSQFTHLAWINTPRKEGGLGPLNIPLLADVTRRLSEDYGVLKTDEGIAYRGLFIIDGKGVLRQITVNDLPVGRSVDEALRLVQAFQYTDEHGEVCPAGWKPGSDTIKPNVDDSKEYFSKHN
UniProt P07225: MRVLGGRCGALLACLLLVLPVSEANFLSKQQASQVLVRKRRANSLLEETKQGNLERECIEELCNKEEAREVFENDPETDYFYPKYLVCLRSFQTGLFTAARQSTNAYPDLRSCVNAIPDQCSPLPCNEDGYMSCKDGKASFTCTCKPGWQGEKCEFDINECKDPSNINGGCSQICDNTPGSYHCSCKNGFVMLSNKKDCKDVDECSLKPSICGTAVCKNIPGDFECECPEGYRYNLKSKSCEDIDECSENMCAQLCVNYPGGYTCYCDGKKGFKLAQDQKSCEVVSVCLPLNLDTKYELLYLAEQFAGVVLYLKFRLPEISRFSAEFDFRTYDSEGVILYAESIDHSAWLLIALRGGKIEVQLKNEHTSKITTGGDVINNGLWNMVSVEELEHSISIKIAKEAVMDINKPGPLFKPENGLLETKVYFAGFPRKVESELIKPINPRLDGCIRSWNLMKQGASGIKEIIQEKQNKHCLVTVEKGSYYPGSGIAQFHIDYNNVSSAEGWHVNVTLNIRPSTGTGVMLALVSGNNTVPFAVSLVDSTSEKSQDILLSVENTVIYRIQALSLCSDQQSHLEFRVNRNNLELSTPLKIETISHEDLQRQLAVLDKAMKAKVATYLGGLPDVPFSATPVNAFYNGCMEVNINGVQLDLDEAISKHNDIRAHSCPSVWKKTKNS
UniProt Q8WY54: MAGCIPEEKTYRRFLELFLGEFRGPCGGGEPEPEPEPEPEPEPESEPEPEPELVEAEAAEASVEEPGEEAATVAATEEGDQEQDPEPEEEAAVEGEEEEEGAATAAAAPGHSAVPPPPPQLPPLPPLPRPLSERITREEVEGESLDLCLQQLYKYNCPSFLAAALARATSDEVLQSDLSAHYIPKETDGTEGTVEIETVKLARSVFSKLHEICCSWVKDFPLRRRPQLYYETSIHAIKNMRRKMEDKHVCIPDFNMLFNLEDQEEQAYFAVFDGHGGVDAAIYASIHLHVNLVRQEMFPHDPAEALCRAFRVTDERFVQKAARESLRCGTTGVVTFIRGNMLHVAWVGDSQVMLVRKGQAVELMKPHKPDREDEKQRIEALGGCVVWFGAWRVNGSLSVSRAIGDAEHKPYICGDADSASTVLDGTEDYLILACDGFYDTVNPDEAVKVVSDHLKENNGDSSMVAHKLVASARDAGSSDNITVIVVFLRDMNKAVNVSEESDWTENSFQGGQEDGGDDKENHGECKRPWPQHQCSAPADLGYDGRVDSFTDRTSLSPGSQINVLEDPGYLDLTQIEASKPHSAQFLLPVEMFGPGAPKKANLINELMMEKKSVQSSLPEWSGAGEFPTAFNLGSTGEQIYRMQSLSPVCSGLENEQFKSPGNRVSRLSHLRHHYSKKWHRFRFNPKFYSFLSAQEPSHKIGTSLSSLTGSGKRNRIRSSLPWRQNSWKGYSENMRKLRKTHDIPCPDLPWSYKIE
UniProt Q6IN85: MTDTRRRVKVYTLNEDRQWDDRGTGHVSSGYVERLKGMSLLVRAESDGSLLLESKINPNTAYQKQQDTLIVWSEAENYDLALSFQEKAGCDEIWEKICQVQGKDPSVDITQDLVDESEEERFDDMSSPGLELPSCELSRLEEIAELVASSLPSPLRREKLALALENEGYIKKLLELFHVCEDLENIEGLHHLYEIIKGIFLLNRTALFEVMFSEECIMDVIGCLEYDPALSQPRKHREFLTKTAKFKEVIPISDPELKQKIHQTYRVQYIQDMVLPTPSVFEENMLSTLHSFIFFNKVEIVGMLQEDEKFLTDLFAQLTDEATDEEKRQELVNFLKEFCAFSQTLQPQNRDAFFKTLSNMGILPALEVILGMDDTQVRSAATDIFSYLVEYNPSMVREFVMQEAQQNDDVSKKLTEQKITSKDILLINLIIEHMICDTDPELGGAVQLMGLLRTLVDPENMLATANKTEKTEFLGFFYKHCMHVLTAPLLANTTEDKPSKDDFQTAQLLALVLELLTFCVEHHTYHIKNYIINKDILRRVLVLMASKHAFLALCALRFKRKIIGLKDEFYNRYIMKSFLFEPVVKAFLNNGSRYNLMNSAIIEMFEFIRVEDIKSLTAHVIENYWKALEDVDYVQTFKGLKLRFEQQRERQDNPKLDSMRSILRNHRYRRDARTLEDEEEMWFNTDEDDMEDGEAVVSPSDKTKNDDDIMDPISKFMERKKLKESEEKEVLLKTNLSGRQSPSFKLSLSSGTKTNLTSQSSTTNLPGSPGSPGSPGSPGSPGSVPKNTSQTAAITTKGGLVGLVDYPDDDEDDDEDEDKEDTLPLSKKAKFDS
UniProt Q9H875: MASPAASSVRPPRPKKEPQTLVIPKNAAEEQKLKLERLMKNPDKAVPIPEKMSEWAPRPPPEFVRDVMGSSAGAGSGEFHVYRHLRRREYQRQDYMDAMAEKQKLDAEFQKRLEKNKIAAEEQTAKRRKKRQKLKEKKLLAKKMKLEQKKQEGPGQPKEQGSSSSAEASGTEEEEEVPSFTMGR
UniProt P36873, whole entry, looked up: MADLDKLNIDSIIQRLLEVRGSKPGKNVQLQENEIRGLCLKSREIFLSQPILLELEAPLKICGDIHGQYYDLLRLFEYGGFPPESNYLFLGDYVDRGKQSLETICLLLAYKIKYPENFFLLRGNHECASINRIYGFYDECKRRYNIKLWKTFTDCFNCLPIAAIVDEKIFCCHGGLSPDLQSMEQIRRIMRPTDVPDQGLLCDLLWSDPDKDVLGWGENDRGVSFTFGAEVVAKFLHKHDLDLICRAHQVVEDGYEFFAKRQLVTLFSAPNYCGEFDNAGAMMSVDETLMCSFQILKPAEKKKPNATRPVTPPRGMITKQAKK

Columns and labels:
Assay in all cases: log2 fold change, soluble protein after heating vs DMSO (PISA); higher = thermal stabilisation; K562 cells, 10 uM, 30 min; active = over 0.2 and 3.5 SD of the protein, either way, in both replicates (recomputed)
[1] = compound: CS(=O)(=O)c1ccc(-c2cnc(N)c(C(=O)Nc3ccccc3)n2)cc1
Method in brief: (§1)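 Thermal stability values are relative to control samples and come from duplicates. They are expressed as log2 fold changes. For measurement, K562 cells (2×10^6 cells/mL) received 10 μM compound for 30 min, and aliquots were heated for 3 min over 48°C-58°C, pooled, and extracted at 4°C in PBS with 0.5% NP-40. Soluble protein, the supernatant after 21,000xg for 90 min, was quantified by TMTpro 16plex LC-MS/MS with equalised channel sums.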

[2] = compound: C[C@@H](Oc1cc(-c2cnn(C3CCNCC3)c2)cnc1N)c1c(Cl)ccc(F)c1Cl [crizotinib]
Method in brief: as §1

[3] = compound: C[C@@H]1COCCN1C2=NC(=NC(=C2)C3(CC3)S(=O)(=O)C)C4=C5C=CNC5=CC=C4
Method in brief: as §1

[4] = compound: C[C@H](C1=CC=C(C=C1)C(=O)NC2=C3C=CNC3=NC=C2)N
Method in brief: as §1

[5] = compound: C[C@H](Nc1ncnc2nc[nH]c12)c1cc2cccc(Cl)c2c(=O)n1-c1ccccc1 [duvelisib]
Method in brief: as §1

[6] = compound: Cc1cc(Nc2cc(CN3CCOCC3)c3nc(C)c(Cc4ccc(Cl)cc4F)n3n2)n[nH]1 [gandotinib]
Method in brief: as §1

[7] = compound: Cc1cc(Nc2cc(N3CCN(C)CC3)nc(Sc3ccc(NC(=O)C4CC4)cc3)n2)n[nH]1 [tozasertib]
Method in brief: as §1

[8] = compound: Cc1cc(SCc2sc(-c3ccc(C(F)(F)F)cc3)nc2C)ccc1OCC(=O)O
Method in brief: as §1

[9] = compound: Cc1ccc(-n2nc(C(C)(C)C)cc2NC(=O)Nc2ccc(OCCN3CCOCC3)c3ccccc23)cc1 [doramapimod]
Method in brief: as §1

[10] = compound: Cc1ccc(C(=O)N(CCCN)[C@@H](c2nc3cc(Cl)ccc3c(=O)n2Cc2ccccc2)C(C)C)cc1 [ispinesib]
Method in brief: as §1

[11] = compound: Cc1ccc(NC(=O)c2ccc(CN3CC[C@H](N(C)C)C3)c(C(F)(F)F)c2)cc1Nc1nccc(-c2cncnc2)n1 [bafetinib]
Method in brief: as §1

[12] = compound: Cc1cccc(CC(=O)N2CCc3c2ccc(-c2cn(C)c4ncnc(N)c24)c3F)n1
Method in brief: as §1

[13] = compound: Cc1cn(-c2cc(NC(=O)c3ccc(C)c(Nc4nccc(-c5cccnc5)n4)c3)cc(C(F)(F)F)c2)cn1 [nilotinib]
Method in brief: as §1

[14] = compound: Cc1nc(Nc2n[nH]c3c2CN(C(=O)N[C@H](CN(C)C)c2ccccc2)C3(C)C)c2sccc2n1
Method in brief: as §1

[15] = compound: Cc1nc(Nc2ncc(C(=O)Nc3c(C)cccc3Cl)s2)cc(N2CCN(CCO)CC2)n1 [dasatinib]
Method in brief: as §1

[16] = compound: Cc1ncc(-c2ccnc(Nc3ccc(S(C)(=O)=O)cc3)n2)n1C(C)C
Method in brief: as §1

[17] = compound: Cn1cc(-c2ccc3c(c2)CCN3C(=O)Cc2cccc(C(F)(F)F)c2)c2c(N)ncnc21
Method in brief: as §1

[18] = compound: Cn1cc(-c2ccc3nnc(C(F)(F)c4ccc5ncccc5c4)n3n2)cn1
Method in brief: as §1

[19] = compound: Cn1cncc1[C@@](N)(c1ccc(Cl)cc1)c1ccc2c(c1)c(-c1cccc(Cl)c1)cc(=O)n2C [tipifarnib]
Method in brief: as §1

[20] = compound: FC(F)(F)c1ccc(/C=C/c2nc(COc3ccc(CCCCn4ccnn4)cc3)co2)cc1 [mubritinib]
Method in brief: as §1

Measured: log2 fold change

PPP6C isoform 3 (UniProt O00743)
inactive: [1] 0.027 | [2] 0.035 | [3] 0.02 | [4] 0.007 | [5] 0 | [6] 0.014 | [7] 0 | [8] -0.056 | [9] -0.049 | [10] -0.017 | [11] -0.054 | [12] -0.021 | [13] 0.009 | [14] -0.008 | [15] 0.064 | [16] -0.004 | [17] -0.038 | [18] 0.011 | [19] 0.014 | [20] 0.053

PPP5C (UniProt P53041)
inactive: [1] 0.054 | [2] 0.013 | [3] 0.041 | [4] -0.042 | [5] 0.026 | [6] -0.032 | [7] -0.007 | [8] -0.01 | [9] -0.037 | [10] 0.028 | [11] -0.045 | [12] 0.013 | [13] -0.018 | [14] 0.001 | [15] -0.071 | [16] 0.053 | [17] 0.041 | [18] 0.007 | [19] -0.034 | [20] -0.018

PPP1R8 (UniProt Q12972)
inactive: [1] -0.018 | [2] -0.036 | [3] 0.042 | [4] -0.048 | [5] 0.041 | [6] -0.047 | [7] -0.019 | [8] -0.003 | [9] 0.03 | [10] 0.032 | [11] -0.005 | [12] 0.051 | [13] -0.015 | [14] -0.037 | [15] -0.055 | [16] 0.015 | [17] 0.031 | [18] -0.035 | [19] -0.005 | [20] 0.128

PQBP1 (UniProt O60828)
inactive: [1] 0.011 | [2] 0.03 | [3] -0.031 | [4] -0.148 | [5] 0.025 | [6] 0.008 | [7] -0.052 | [8] -0.045 | [9] -0.033 | [10] 0.004 | [11] -0.03 | [12] -0.045 | [13] 0.01 | [14] 0.004 | [15] 0.068 | [16] 0.01 | [17] -0.027 | [18] -0.031 | [19] 0.087 | [20] -0.003

PPP1R11 (UniProt O60927)
inactive: [1] 0.053 | [2] 0.038 | [3] 0.09 | [4] -0.024 | [5] -0.058 | [6] 0.103 | [7] -0.027 | [8] -0.082 | [9] 0.018 | [10] -0.01 | [11] -0.072 | [12] -0.008 | [13] 0 | [14] -0.029 | [15] 0.127 | [16] 0.033 | [17] 0.028 | [18] 0.009 | [19] 0.024 | [20] 0.019

PRSS21 (UniProt Q9Y6M0)
inactive: [1] 0.003 | [2] 0.016 | [3] -0.012 | [4] 0.009 | [5] -0.028 | [6] 0.052 | [7] 0.064 | [8] 0.049 | [9] 0.082 | [10] 0.033 | [11] 0.022 | [12] 0.029 | [13] 0.029 | [14] 0.06 | [15] -0.066 | [16] 0 | [17] 0.042 | [18] -0.016 | [19] 0.064 | [20] -0.042

PPP1CB (UniProt P62140)
inactive: [1] 0.006 | [2] -0.001 | [3] 0.103 | [4] -0.129 | [5] 0.033 | [6] -0.041 | [7] 0.028 | [8] 0.015 | [9] -0.006 | [10] 0.002 | [11] -0.035 | [12] -0.054 | [13] -0.031 | [14] -0.004 | [15] -0.011 | [16] -0.039 | [17] 0.058 | [18] 0.025 | [19] -0.001 | [20] -0.007

PRPF8 (UniProt Q6P2Q9)
inactive: [1] -0.036 | [2] 0.018 | [3] -0.134 | [4] 0.114 | [5] -0.013 | [6] 0.021 | [7] 0.019 | [8] 0.026 | [9] 0.065 | [10] 0.046 | [11] 0.081 | [12] 0 | [13] 0.011 | [14] -0.003 | [15] -0.007 | [16] 0.033 | [17] -0.16 | [18] -0.091 | [19] 0 | [20] -0.011

PRDX4 (UniProt Q13162)
inactive: [1] 0.01 | [2] -0.02 | [3] 0.088 | [4] -0.024 | [5] 0.007 | [6] -0.038 | [7] -0.036 | [8] -0.051 | [9] -0.037 | [10] 0.023 | [11] -0.023 | [12] -0.027 | [13] -0.03 | [14] -0.003 | [15] 0.013 | [16] -0.061 | [17] 0.051 | [18] -0.061 | [19] 0.079 | [20] 0.004

Reprinted from the listing (two entries):
PPP1R11 (UniProt O60927)
inactive: [1] 0.053 | [2] 0.038 | [3] 0.09 | [4] -0.024 | [5] -0.058 | [6] 0.103 | [7] -0.027 | [8] -0.082 | [9] 0.018 | [10] -0.01 | [11] -0.072 | [12] -0.008 | [13] 0 | [14] -0.029 | [15] 0.127 | [16] 0.033 | [17] 0.028 | [18] 0.009 | [19] 0.024 | [20] 0.019

PRSS21 (UniProt Q9Y6M0)
inactive: [1] 0.003 | [2] 0.016 | [3] -0.012 | [4] 0.009 | [5] -0.028 | [6] 0.052 | [7] 0.064 | [8] 0.049 | [9] 0.082 | [10] 0.033 | [11] 0.022 | [12] 0.029 | [13] 0.029 | [14] 0.06 | [15] -0.066 | [16] 0 | [17] 0.042 | [18] -0.016 | [19] 0.064 | [20] -0.042

Following part:

PROSER2 (UniProt Q86WR7)
inactive: [1] 0.026 | [2] -0.035 | [3] 0.064 | [4] 0.05 | [5] 0.046 | [6] 0.042 | [7] -0.168 | [8] 0.029 | [9] 0 | [10] 0.001 | [11] -0.05 | [12] -0.064 | [13] 0.084 | [14] -0.156 | [15] -0.099 | [16] 0 | [17] 0.039 | [18] 0.073 | [19] 0.04 | [20] -0.056

PRDX2 (UniProt P32119)
inactive: [1] 0.051 | [2] -0.01 | [3] 0.035 | [4] -0.021 | [5] 0.048 | [6] -0.044 | [7] -0.012 | [8] -0.015 | [9] -0.051 | [10] 0.016 | [11] -0.051 | [12] 0.009 | [13] -0.016 | [14] -0.003 | [15] 0.003 | [16] -0.018 | [17] 0.031 | [18] 0.039 | [19] -0.018 | [20] 0.058

PROS1 (UniProt P07225)
inactive: [1] -0.029 | [2] 0.005 | [3] -0.089 | [4] 0 | [5] -0.045 | [6] 0.057 | [7] 0.015 | [8] -0.072 | [9] 0.015 | [10] 0.01 | [11] -0.173 | [12] -0.038 | [13] 0.047 | [14] -0.024 | [15] 0.044 | [16] 0.032 | [17] 0.006 | [18] -0.004 | [19] 0.062 | [20] -0.088

PPM1E (UniProt Q8WY54)
inactive: [1] 0.005 | [2] 0.011 | [3] 0.043 | [4] -0.028 | [5] -0.009 | [6] -0.068 | [7] 0.044 | [8] 0.089 | [9] 0.003 | [10] -0.032 | [11] -0.003 | [12] -0.014 | [13] 0.045 | [14] 0.033 | [15] -0.075 | [16] -0.074 | [17] 0.107 | [18] 0.023 | [19] 0.006 | [20] 0.031

PPP4R3A (UniProt Q6IN85)
inactive: [1] 0.038 | [2] 0.021 | [3] -0.011 | [4] -0.048 | [5] 0.017 | [6] -0.003 | [7] 0.027 | [8] -0.022 | [9] -0.005 | [10] -0.008 | [11] -0.106 | [12] 0.01 | [13] -0.031 | [14] -0.013 | [15] 0.002 | [16] -0.01 | [17] 0.017 | [18] 0.057 | [19] 0.082 | [20] 0.114

PRKRIP1 (UniProt Q9H875)
inactive: [1] -0.135 | [2] 0.058 | [3] -0.002 | [4] 0.009 | [5] 0.028 | [6] 0.204 | [7] -0.048 | [8] -0.048 | [9] 0.04 | [10] 0.018 | [11] 0.074 | [12] -0.142 | [13] 0.008 | [14] 0.133 | [15] 0.121 | [16] 0.179 | [17] -0.009 | [18] 0.021 | [19] 0.037 | [20] 0.004

PPP1CC isoform 2 (UniProt P36873)
inactive: [1] -0.023 | [2] 0.053 | [3] 0.044 | [4] -0.094 | [5] 0.021 | [6] 0.024 | [7] -0.01 | [8] 0.008 | [9] -0.047 | [10] 0.061 | [11] -0.055 | [12] 0.001 | [13] -0.021 | [14] 0.066 | [15] 0.056 | [16] -0.006 | [17] 0.006 | [18] -0.026 | [19] 0.009 | [20] -0.009
